Not every detail of the peptide structures is certain; ends, links or a residue may be inferred. Square brackets hold non-standard residues; d marks the D form. Peptide text beside a SMILES is read from it. * marks the point of attachment. X1 = NCCCC[C@H](NC(=O)[C@H](CS)NC(=O)CNC(=O)CNC(=O)C*)C(N)=O; NMeF = CN[C@@H](Cc1ccccc1)C(=O)O; hCys = N[C@@H](CCS)C(=O)O
What was measured:
[1] = system: Somatostatin Receptor (SSTR)-expressing CA20948 rat pancreatic tumors; test: Localization and in vivo biodistribution/imaging of Tc-99m labeled peptides in CA20948 tumor-bearing Lewis rats
SSTR-expressing tumors = test: Clinical trial: scintigraphic imaging of human patients bearing SSTR-expressing tumors with Tc-99m labeled P587; format: in vivo
Excerpt: In a clinical trial, scintigraphic imaging of human patients bearing SSTR-expressing tumors was achieved using the Tc-99m labeled P587 reagent.
A total of 10 patients, four females and six males ranging in age from 27 to 69 years, had been previously diagnosed with growth hormone-secreting pituitary adenoma (4 patients), melanoma (1 subject), medullary thyroid cancer (1 subject), small cell lung carcinoma (SCLC; 1 patient), non-Hodgkin's lymphoma (1 patient) or gastric carcinoid (1 patient). Each of these patients were administered Tc-99m labeled P587 at a dose of 10-22 mCi per 0.2-0.5 mg by intravenous injection. Scintigraphic imaging was them performed as described herein on each patient for 4 hours post-injection.
Gamma camera imaging is started simultaneously with injection. Anterior images were acquired as a dynamic study (10 sec image acquisitions) over the first 10 min, and then as static images at 1, 2, 3 and 4 h post-injection. Anterior images were acquired for 500,000 counts or 20 min (whichever is shorter), at approximately 10-20 min, and at approximately 1, 2, 3 and 4 h post-injection.

For CC(C)[C@@H]1NC(=O)[C@H](CCCCN)NC(=O)[C@@H](Cc2c[nH]c3ccccc23)NC(=O)[C@H](Cc2ccc(O)cc2)NC(=O)[C@H](Cc2ccccc2)N(C)C(=O)[C@H](CCSCC(=O)NCC(=O)NCC(=O)N[C@@H](CS)C(=O)N[C@@H](CCCCN)C(N)=O)NC1=O [Peptide P587, cyclo(N-methyl)FYWD KV.Hcy.(CH2 CO.GGCK.amide)] (cyclo([NMeF]Y[dW]KV[hCys](X1))), the “reduction of specific tumor uptake of the radiolabeled peptide by receptor-blocking with octreotide” value ([1]; octreotide 4 mg/kg s.c. 30 minutes prior to radiotracer) was 76%, the “tumor uptake in scintigraphic image (FIG. 1)” value ([1]; tumor-bearing rat, tumor in the lower leg) was “high uptake in the tumor” and the “detection of SSTR-expressing tumors by scintigraphic imaging” value (SSTR-expressing tumors; 10 human patients) was “All known tumors were detected”. For the same molecule, the “earliest image acquisition of tumor sites after injection” value (SSTR-expressing tumors; human patients, 10-22 mCi per 0.2-0.5 mg i.v.) was 15 to 30 min.

Reference: patent publication US6051206A, “Radiolabeled somatostatin-derived peptides for imaging and therapeutic uses” (Diatide, Inc, priority 1996, dated 2000)
